Measurements reported in paper doi:10.1101/689596.
Results are given in words; binding and its absence hold for the method and conditions named. Binding can be weak; no strength is given. Sequences can lack the tags named with a protein.

Target: T1, MBP-RIC-3-His6 (human) (UniProt Q7Z5B4)
T1 sequence: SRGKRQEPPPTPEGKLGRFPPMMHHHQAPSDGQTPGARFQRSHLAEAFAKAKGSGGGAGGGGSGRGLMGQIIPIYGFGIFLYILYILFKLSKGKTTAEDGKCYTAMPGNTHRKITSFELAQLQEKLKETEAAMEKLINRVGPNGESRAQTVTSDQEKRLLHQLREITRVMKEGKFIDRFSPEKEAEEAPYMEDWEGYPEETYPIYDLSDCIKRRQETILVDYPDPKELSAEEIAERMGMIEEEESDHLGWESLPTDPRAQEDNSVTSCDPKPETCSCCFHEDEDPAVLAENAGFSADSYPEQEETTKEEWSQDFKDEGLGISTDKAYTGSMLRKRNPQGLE
Test: pull-down

Row | Substance | binding
1 | MBP-Δ55 (mouse) (domain or fragment) | binds
2 | MBP-Δ34 (mouse) (domain or fragment) | binds
